From patent US20230159935 come the findings set out here.

Sequences of proteins named here, by UniProt entry; tags and fusion partners are left off. A change or cut given only in a name is not applied to a line headed by its entry. Residues count along the entry.
UniProt Q62351, whole entry: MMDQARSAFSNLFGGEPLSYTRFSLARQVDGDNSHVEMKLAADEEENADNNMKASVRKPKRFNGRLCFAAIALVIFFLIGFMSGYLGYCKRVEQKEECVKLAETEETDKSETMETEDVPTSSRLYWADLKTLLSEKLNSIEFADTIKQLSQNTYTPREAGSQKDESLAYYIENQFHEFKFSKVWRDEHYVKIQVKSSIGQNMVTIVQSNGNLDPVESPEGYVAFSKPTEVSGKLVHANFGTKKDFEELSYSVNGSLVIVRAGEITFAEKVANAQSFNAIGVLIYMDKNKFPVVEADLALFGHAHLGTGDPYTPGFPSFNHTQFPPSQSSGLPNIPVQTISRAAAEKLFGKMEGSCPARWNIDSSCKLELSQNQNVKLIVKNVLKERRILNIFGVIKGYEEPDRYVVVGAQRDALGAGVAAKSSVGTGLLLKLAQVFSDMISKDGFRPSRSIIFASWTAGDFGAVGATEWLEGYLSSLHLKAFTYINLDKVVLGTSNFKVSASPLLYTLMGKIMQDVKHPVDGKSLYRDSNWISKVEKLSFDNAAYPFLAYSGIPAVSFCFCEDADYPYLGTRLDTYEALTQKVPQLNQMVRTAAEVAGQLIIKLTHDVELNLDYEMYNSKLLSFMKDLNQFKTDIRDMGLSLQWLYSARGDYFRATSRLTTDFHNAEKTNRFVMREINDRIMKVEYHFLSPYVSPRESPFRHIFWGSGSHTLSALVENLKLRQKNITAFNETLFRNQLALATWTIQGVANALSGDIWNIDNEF
UniProt P04271, 2-92: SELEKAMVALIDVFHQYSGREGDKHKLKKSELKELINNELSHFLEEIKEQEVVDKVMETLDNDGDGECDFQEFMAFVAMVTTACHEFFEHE

For part of these data: No signal at the amounts used counts as a negative. For part of these data: The comparison behind a weaker result is the experiment's own reference, which may not be listed here. For part of these data: Where cells or extracts were used, other partners may take part. For part of these data: The exact form of at least one protein or probe is not confirmed.

Data set [1] concerns the target Transferrin receptor (TfR) on bEnd.3 cells (Mus musculus) (UniProt Q62351). The data set can be described thus: flow cytometry. To be noted: protein on the cell surface. (Flow cytometry measures light scatter and fluorescence of single cells or particles in a stream.)
For data set [2] the target is unchanged. The data set can be described thus: activity in cells. To be noted: 90 min, protein on the cell surface, dose not given here.
The subject of data set [3] is Tau441 (2N4R tau) (Homo sapiens). The data set can be described thus: inhibition of the protein. To be noted: purified recombinant protein, single-stranded DNA, dose not given here.
Data set [4] deals with Endogenous Tau in N2a cells (Mus musculus). The experiment in a line: activity in cells. To be noted: dose-dependent reduction of okadaic acid-induced tau oligomers and P-Tau, lipofectamine; protein in cells; single-stranded DNA; variant of BW1b; dose not given here.
The subject of data set [5] is Tau441 (2N4R tau) (Homo sapiens). The experiment in a line: binding assay. To be noted: dot blot, 100 nM; weaker than BW1; purified recombinant protein; label: 5' Cy5; single-stranded DNA; variant of BW1.
Data set [6] relates to Phosphorylated Tau (P-Tau). The experiment in a line: binding assay. As to conditions: dot blot, only one main band at native Tau; purified recombinant protein; label: FAM; single-stranded DNA.
A further data set concerns Casein (alpha and beta). The experiment in a line: binding assay. To be noted: dot blot, purified native protein, single-stranded DNA.
A further data set deals with IgG. The experiment in a line: binding assay. To be noted: dot blot, purified native protein, single-stranded DNA.
Another data set deals with S100B (UniProt P04271). The experiment in a line: EMSA. To be noted: purified recombinant protein. A general note: Mobility shift assays separate free from complexed probe on a gel.
Where [7] appears, read: transport, single-stranded DNA, variant of Circular Tau-TfR bispecific aptamer.
The mark [8] stands for this setting: inhibits arachidonic acid-induced oligomerization, label: FAM.

Consider “CGTAAATCAGTCAGAAGGCGTGGTACCACGCTTTC [TfR aptamer (13-base extended)]”, for which the binding result in data set [1] (smaller shift than circular aptamer, label: FITC-dT near 3' end, single-stranded DNA) is on record as “binds”.
Turning to “CGTAAATCAGTCAGAAGGCGTGGTACCACGCTTTCTGACTGATTTACGGAAGCTGAATAAGGACTGCTTAGGATTGCGATGATTCAGCTTC [Linear IT2a-TfR aptamer]”, the “functional effect of the aptamer” value in data set [2] (setting [7]) is listed as “less active”.
Consider “CGTAAATCAGTCAGAAGTCGACGCCGGTCGACTTCTGACTGATTTACGGAAGTTACGGACGGATGTCAGTGGTATAGTAATCCGTAACTTC”, for which the “functional effect of the aptamer” value in [2] (transport control, folded or branched DNA, variant of Circular Tau-TfR bispecific aptamer) is recorded as “not active”.
Take “CTGAATAAGGACTGCTTAGGATTGCGATGATTCAG [IT2a aptamer]”: the “functional effect of the aptamer” value in data set [3] (inhibits aggregation (ThT), less than BW1 and BW1c) is “active”.
Consider “GACGATAGCATCACTCCCCCCCACCTATTACATCATCATAAATTGAGTGCTATCGTC [BW1c]”, for which the “functional effect of the aptamer” value is recorded as “active” in [3] (inhibits arachidonic acid/heparin-induced aggregation (ThT) and GSK3B phosphorylation, label: 5' Cy5, variant of BW1b); “active” in data set [4].
Take “GACGATGGCATCACTCCCCCCCACCTATTACATCATCATAAATTGAGTGCTATCGTC [BW1b]”: the binding result in data set [5] is given as “binds more weakly”.
On the same count and under the same terms, the value for “GACTTGACGATGGCATCACTCCCCCCCACCTATTACATCATCATAAATTGAGTGCTATCGTCTGTC [BW1a]” was “binds more weakly”.
In the case of “TCACCTGAGACTTGACGATGGAACTCCCCCCACCATTATCAGCGCACCACCATTGTAGAGTGCTATCGTCTGTCCA [BW3]”, in data set [3] (setting [8]), the “functional effect of the aptamer” value is “active”. In addition, the binding result in [6] is “no binding”; with Casein (alpha and beta) (label: FAM) it was “no binding”; in the data set with IgG (label: FAM), “no binding”.
Regarding “TCACCTGAGACTTGACGATGGCAATCCCCCCGACACCGAATCCTAAGCGAACAACGCGAGTGCTATCGTCTGTCCA [BW10]”, the “functional effect of the aptamer” value in data set [3] (setting [8]) is on record as “active”. Also, the binding result in data set [6] was “no binding”; with Casein (alpha and beta) (label: FAM), “no binding”; in the data set on IgG (label: FAM) it was “no binding”.
For the sequence “TCACCTGAGACTTGACGATGGCACTACCCCTCCCTACTAAGCACGGTATCTTGTACTGAGTGCTATCGTCTGTCCA [BW8]”, the “functional effect of the aptamer” value in [3] (setting [8]) was “active”. The binding result is on record as “no binding” in data set [6]; “no binding” in the data set on Casein (alpha and beta) (label: FAM); “no binding” with IgG (label: FAM).
As to “TCACCTGAGACTTGACGATGGCATCACTCCCCCCCACCTATTACATCATCATAAATTGAGTGCTATCGTCTGTCCA [BW1]”, in data set [3] (inhibits arachidonic acid/heparin-induced aggregation (most robust) and GSK3B phosphorylation, label: FAM or 5' Cy5), the “functional effect of the aptamer” value was “active”. Moreover, the binding result was “no binding” in the data set with Casein (alpha and beta) (label: FAM or 5' Cy5); “no binding” with IgG (label: FAM or 5' Cy5).
As to “TCACCTGAGACTTGACGATGGCCTCCCCCTCACGCACTCTTCCGTTTCTTCTTATCTGAGTGCTATCGTCTGTCCA [BW2]”, the “functional effect of the aptamer” value in data set [3] (setting [8]) is reported as “active”. Moreover, the binding result is on record as “no binding” in [6]; “no binding” in the data set on Casein (alpha and beta) (label: FAM); “no binding” with IgG (label: FAM).
As for “TCACCTGAGACTTGACGATGGGAACAAACACCGCGACCACCCCCCCACTTAACTCCTGAGTGCTATCGTCTGTCCA [BW9]”, in data set [3] (setting [8]), the “functional effect of the aptamer” value is “active”. For the same sequence, the binding result is listed as “no binding” in [6]; “no binding” in the data set on Casein (alpha and beta) (label: FAM); “no binding” in the data set with IgG (label: FAM).
Consider “TCACCTGAGACTTGACGATGGTACGACGGCCCCCCGATTATGCGACTACTTGATTTGAGTGCTATCGTCTGTCCA [BW5]”, for which the “functional effect of the aptamer” value in data set [3] (setting [8]) is reported as “active”. Also, the binding result in [6] is reported as “no binding”; with Casein (alpha and beta) (label: FAM) it was “no binding”; in the data set on IgG (label: FAM), “no binding”.
Take “TCACCTGAGACTTGACGATGGTCAGAACGACGCGCCCCCCACCTCATTCATTATTTTGAGTGCTATCGTCTGTCCA [BW6]”: the “functional effect of the aptamer” value in data set [3] (setting [8]) was “active”. In addition, the binding result is “no binding” in data set [6]; “no binding” with Casein (alpha and beta) (label: FAM); “no binding” with IgG (label: FAM).
In the case of “TCACCTGAGACTTGACGATGGTGACCACCCCCCACGCACACACACCTCTTCCATCCTGAGTGCTATCGTCTGTCCA [BW7]”, the “functional effect of the aptamer” value in data set [3] (setting [8]) is “active”. In addition, the binding result in data set [6] is given as “no binding”; in the data set on Casein (alpha and beta) (label: FAM), “no binding”; with IgG (label: FAM), “no binding”.
On to “TCACCTGAGACTTGACGATGGTTTAACTCCCCCACGCCCCCCGCCAACCCATCTCCAGAGTGCTATCGTCTGTCCA [BW4]”, for which the “functional effect of the aptamer” value in data set [3] (setting [8]) was “active”. Moreover, the binding result is “no binding” in data set [6]; “no binding” in the data set on Casein (alpha and beta) (label: FAM); “no binding” in the data set on IgG (label: FAM).
Turning to “TGACTGATTTACGGAAGCTGAATAAGGACTGCTTAGGATTGCGATGATTCAGCTTC [IT2a Tau aptamer (13-base extended)]”, the “functional effect of the aptamer” value in data set [2] (transport control, single-stranded DNA) was “not active”. Also, the binding result in the data set with S100B (profile stated same as circular aptamer, label: FITC-dT near 3' end, single-stranded DNA) is “no binding”.
In the case of “TGACTGATTTACGGAAGCTGAATAAGGACTGCTTAGGATTGCGATGATTCAGCTTCCGTAAATCAGTCAGAAGCTGAATAAGGACTGCTTAGGATTGCGATGATTCAGCTTC [Circular IT2a/cIT2a dimeric Tau aptamer]”, the “functional effect of the aptamer” value in [2] (transport control, folded or branched DNA) was “not active”.
“TGACTGATTTACGGAAGCTGAATAAGGACTGCTTAGGATTGCGATGATTCAGCTTCCGTAAATCAGTCAGAAGGCGTGGTACCACGCTTTC [Circular Tau-TfR bispecific aptamer]”: the binding result in [1] (400 nM, 4 C, no binding to TfR-negative HEK293T, label: one or two FITC-dT, folded or branched DNA) is recorded as “binds”; with S100B (specificity control, label: one or two FITC-dT, folded or branched DNA), “no binding”. The “functional effect of the aptamer” value in [2] (transport across bEnd.3 monolayer, transport ratio 97±4% at 8 h, folded or branched DNA) is listed as “active”.
Consider “TTTTTTTTTTTTTGAAGGCGTGGTACCACGCTTTCTTTTTTTTTTTTTGAAGCTGAATAAGGACTGCTTAGGATTGCGATGATTCAGCTTC [Linear T-IT2a-TfR aptamer (poly-T)]”, for which, in [2] (setting [7]), the “functional effect of the aptamer” value is “less active”.
